Results taken from PMC6069116.

Experiments:
[1] = target: HrpG from Pseudomonas syringae pv. phaseolicola (Pseudomonas syringae pv. phaseolicola); experiment: pull-down; […]; 20 mM Tris pH 8.0, 50 mM NaCl; […]
[2] = target: HrpG from Pseudomonas syringae pv. phaseolicola (Pseudomonas syringae pv. phaseolicola); experiment: pull-down

B1: HrpJ from Pseudomonas syringae pv. phaseolicola (protein, UniProt Q05395 1-346)
chain: MKIVAPPTLPIRPVAPIRAITPAARAIPGSGLPDEKGTSSLQVSRFAAALVQHSRILRERELIASRNALQSRAVKLGELYQLLMSTSDTGLDNAARLLRKKLLQDNDADLEQVLEFADGDAAKAHVVLQAARKQAEDDGAEEEYAALTQTLKHLRRRFGPRARAGINTARAFGRQNIDNKRRTALRNLYGVAVSGQPNVTGLIEALIGEQQEPGEFDLNLRDMRRAIADDLSAITPSASHEQLRTLMHGLTTARHVTTLLRGCEHLLGRMRKKNPKLTVDPPAFLKHMLTLTANGMNVNQTLQLTQHIGGNKLEHQLAFLNGLRADADATADPALAGPEKPPGRAE
Question: Which results are given for B1?
Answer: binding [1]: binds; binding [2]: binds

No constants are given. Whether binding was seen depends on the method and setting. In cells and extracts the contact can be indirect. Binding can be weak; no strength is given.
